Assay results taken from patent US20040053822A1.

How the values were obtained:
Assay in all cases: inhibition of 125I probe peptide binding to purified HLA
HLA-DRB1*0701 (human) = biological target: HLA-DRB1*0701 (human)
HLA-DRB1*0101 (human) = biological target: HLA-DRB1*0101 (human)
HLA-DRB1*0401 (human) = biological target: HLA-DRB1*0401 (human)
HLA-DRB1*0301 (human) = biological target: HLA-DRB1*0301 (human)

| Binder | binding (HLA-DRB1*0701 (human)) | binding (HLA-DRB1*0101 (human)) | binding (HLA-DRB1*0401 (human)) | binding (HLA-DRB1*0301 (human)) |
| --- | --- | --- | --- | --- |
| DGLLGDNQVMPKTGL | no binding (tested: ratio < 0.0011) | no binding (tested: ratio < 0.0005) | no binding (tested: ratio < 0.0032) | – |
| LGEVPAADSPSPPHS | no binding (tested: ratio < 0.0011) | no binding (tested: ratio < 0.0005) | no binding (tested: ratio < 0.0032) | – |
| CLGLSYDGLLGDNQI | – | – | – | no binding (tested: ratio < 0.0025) |
| DGLLGDNQIMPKAGL | no binding (tested: ratio < 0.0011) | no binding (tested: ratio < 0.0003) | no binding (tested: ratio < 0.0032) | – |
| LAIIAREGDCAPEEK | – | – | – | no binding (tested: ratio < 0.0025) |

No constants are given. Whether binding was seen depends on the method and setting.
